{
  "sequences": {"note": "By UniProt entry, the sequences of proteins in these tests, tags left out. Where a name states a change or a piece, a line headed by the entry shows the natural chain unless it says otherwise.", "UniProt Q9UPY3": "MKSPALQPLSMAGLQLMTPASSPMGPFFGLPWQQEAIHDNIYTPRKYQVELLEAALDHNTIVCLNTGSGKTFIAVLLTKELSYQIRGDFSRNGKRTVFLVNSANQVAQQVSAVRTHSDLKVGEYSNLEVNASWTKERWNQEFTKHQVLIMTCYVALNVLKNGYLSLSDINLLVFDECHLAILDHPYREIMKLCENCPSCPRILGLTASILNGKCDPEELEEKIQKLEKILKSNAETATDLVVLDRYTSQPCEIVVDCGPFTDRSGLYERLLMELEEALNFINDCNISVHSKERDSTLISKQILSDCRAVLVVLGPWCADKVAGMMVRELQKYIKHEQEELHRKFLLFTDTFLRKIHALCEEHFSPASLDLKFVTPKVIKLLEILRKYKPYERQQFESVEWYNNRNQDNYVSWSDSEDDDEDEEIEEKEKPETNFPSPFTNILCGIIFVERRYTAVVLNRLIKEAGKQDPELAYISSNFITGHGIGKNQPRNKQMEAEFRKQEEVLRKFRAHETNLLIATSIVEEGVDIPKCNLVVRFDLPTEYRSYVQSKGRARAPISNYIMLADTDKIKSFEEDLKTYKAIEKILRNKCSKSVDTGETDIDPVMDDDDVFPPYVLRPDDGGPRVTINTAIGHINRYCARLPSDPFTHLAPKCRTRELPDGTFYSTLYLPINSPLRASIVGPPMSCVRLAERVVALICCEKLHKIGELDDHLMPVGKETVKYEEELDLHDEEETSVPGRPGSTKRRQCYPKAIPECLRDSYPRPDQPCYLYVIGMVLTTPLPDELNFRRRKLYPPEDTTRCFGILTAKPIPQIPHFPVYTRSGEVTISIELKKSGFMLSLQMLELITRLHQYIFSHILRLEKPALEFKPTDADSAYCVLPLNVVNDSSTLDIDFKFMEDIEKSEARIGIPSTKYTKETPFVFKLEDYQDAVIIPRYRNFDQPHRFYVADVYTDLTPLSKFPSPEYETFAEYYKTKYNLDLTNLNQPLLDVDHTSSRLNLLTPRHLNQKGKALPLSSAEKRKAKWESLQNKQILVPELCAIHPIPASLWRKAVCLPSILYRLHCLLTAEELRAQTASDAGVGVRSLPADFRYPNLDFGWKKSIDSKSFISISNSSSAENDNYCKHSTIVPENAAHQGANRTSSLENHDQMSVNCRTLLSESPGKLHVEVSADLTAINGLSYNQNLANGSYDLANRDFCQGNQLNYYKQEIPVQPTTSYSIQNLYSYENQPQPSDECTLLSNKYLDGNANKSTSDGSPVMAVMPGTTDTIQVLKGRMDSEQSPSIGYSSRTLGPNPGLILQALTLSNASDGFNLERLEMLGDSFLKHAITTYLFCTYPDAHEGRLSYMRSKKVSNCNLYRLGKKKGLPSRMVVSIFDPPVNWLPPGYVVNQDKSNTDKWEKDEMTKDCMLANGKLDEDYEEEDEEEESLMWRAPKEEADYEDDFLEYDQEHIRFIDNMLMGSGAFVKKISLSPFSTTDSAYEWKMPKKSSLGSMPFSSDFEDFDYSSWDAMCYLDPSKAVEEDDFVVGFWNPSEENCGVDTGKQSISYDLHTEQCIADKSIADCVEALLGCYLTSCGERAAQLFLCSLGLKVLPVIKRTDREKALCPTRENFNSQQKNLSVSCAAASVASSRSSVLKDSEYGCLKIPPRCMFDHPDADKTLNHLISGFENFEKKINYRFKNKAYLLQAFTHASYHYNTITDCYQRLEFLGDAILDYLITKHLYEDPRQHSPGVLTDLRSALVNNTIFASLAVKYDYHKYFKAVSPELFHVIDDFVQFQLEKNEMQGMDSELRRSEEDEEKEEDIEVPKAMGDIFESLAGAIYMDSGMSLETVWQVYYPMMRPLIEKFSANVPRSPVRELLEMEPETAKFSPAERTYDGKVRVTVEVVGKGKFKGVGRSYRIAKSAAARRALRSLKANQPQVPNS"},
  "source": "patent US20210162076",
  "key": {"HER2 (ERBB2) [1]": {"molecular_target": "HER2 (ERBB2) (UniProt P04626)", "experiment": "flow cytometry", "conditions": "2'-F pyrimidines; RNA transcribed from listed DNA templates; BT474 all positive, SKBR3 two populations; 2 uM, 37 C, 1 h, tRNA and sperm DNA competitor; protein on the cell surface; protein details: endogenous on BT474 / SKBR3 breast cancer cells; label: Cy5; variant of HER2 aptamer (34 nt)"}, "Dicer (Homo sapiens)": {"molecular_target": "Dicer (Homo sapiens) (UniProt Q9UPY3)", "experiment": "enzyme reaction in vitro", "conditions": "2'-F pyrimidines; Dicer 2 units, 4 ug RNA, 37 C 12 h; releases fragment of siRNA size; purified recombinant protein; protein details: recombinant, Genlantis; label: Cy5; variant of HER2 aptamer (34 nt)"}, "HER2 (ERBB2) [2]": {"molecular_target": "HER2 (ERBB2) (UniProt P04626)", "experiment": "activity in cells", "conditions": "2'-F pyrimidines; no cytotoxicity to BT474/SKBR3; no tumor accumulation in BT474 xenograft; protein on the cell surface; protein details: endogenous on BT474 / SKBR3 breast cancer cells; dose not given here"}},
  "note": "For part of these data: No signal at the amounts used counts as a negative. For part of these data: Where cells or extracts were used, other partners may take part.",
  "data": [
    {"sequence": "AGCCGCGAGGGGAGGGATAGGGTAGGGCGCGGCTAAAACCTTAGCAGTCTTATCTAATT / AGCCGCGAGGGGAGGGATAGGGTAGGGCGCGGCTAAAATTAGATAAGACTGCTAAGGCA [HEH (HER2 aptamer-EGFR siRNA-HER2 aptamer chimera)]", "values": [
      {"measurement": "binding result", "setting": "HER2 (ERBB2) [1]", "result": "binds"}
    ]},
    {"sequence": "AGCCGCGAGGGGAGGGAUAGGGUAGGGCGCGGCUAAAACCUUAGCAGUCUUAUCUAAUU / GAAUUCCGCGUGUGCCAGCGAAAGUUGCGUAUGGGUCACAUCGCAGGCACAUGUCAUCUGGGCGGUCCGUUCGGGAUCCAAAAUUAGAUAAGACUGCUAAGGCA [H2EH3 (HER2 aptamer-EGFR siRNA-HER3 aptamer chimera)]", "values": [
      {"measurement": "activity on this sequence", "setting": "Dicer (Homo sapiens)", "result": "active"}
    ]},
    {"sequence": "GGAUCCCGACUGGCGAGAGCCAGGUAACGAAUGGAUCC [MG aptamer (malachite green, non-targeting control)]", "values": [
      {"measurement": "functional effect of the aptamer", "setting": "HER2 (ERBB2) [2]", "result": "not active"}
    ]}
  ]
}
